Publication PMC6364870

Protein sequences, listed by entry. Tags and fused reporters are not part of them.
UniProt Q6DVA0: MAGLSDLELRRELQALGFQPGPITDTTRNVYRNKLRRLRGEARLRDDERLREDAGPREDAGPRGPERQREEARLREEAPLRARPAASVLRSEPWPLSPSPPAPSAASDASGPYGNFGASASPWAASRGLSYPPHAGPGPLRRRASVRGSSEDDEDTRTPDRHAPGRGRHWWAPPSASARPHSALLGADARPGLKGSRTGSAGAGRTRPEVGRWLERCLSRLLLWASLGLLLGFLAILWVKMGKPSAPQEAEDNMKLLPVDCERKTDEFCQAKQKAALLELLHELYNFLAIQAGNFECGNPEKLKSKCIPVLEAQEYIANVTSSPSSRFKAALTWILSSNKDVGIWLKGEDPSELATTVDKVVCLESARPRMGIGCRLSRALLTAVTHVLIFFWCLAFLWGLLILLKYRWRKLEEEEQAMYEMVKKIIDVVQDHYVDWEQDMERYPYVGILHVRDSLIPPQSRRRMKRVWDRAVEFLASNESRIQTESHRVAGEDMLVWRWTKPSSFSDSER
UniProt O54962: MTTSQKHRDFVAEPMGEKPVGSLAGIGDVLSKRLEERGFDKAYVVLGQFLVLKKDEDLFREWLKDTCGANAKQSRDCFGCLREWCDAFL
UniProt O09106: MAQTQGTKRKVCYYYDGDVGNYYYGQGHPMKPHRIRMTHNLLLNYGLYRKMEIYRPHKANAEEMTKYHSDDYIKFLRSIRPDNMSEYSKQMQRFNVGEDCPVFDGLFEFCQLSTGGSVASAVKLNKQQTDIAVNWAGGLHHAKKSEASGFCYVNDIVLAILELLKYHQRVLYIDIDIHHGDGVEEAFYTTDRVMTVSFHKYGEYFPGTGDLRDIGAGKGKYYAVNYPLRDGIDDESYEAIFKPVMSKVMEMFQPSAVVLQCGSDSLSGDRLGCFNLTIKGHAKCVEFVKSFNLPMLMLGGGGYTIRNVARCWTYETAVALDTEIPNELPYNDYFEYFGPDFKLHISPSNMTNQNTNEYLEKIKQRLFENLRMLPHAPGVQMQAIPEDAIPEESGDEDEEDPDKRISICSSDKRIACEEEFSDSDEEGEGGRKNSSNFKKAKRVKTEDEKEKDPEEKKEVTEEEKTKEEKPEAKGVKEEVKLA

T1: SATB2 (mouse (endogenous in cortex)) (UniProt Q8VI24)
T1 sequence: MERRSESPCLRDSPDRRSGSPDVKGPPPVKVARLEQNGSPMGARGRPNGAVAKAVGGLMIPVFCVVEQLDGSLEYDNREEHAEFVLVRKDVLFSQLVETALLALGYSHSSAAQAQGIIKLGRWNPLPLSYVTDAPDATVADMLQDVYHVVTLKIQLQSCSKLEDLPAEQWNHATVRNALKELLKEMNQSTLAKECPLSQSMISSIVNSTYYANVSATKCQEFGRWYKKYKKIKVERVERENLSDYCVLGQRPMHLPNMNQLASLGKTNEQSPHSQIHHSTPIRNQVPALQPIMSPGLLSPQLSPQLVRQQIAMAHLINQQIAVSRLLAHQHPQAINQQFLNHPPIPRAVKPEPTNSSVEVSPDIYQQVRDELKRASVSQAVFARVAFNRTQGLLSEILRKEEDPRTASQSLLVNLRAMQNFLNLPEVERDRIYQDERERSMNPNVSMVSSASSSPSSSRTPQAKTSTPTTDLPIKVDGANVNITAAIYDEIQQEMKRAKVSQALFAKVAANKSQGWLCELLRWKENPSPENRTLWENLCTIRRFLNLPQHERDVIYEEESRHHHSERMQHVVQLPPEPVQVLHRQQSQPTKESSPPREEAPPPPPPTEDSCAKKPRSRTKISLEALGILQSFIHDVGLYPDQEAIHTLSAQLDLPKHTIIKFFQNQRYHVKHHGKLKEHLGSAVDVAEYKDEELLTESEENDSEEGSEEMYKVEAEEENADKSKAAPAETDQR


What was measured:
[1] = biological target: T1, SATB2 (mouse (endogenous in cortex)); assay: affinity purification with mass spectrometry; endogenous SATB2 precipitated with anti-SATB2 on protein G Dynabeads from neonatal mouse cortical lysate (1 mg total protein, overnight 4°C; 25 mM Tris/HCl pH 7.4, 150 mM NaCl, 1% NP-40, 1 mM EDTA, 5% glycerol); Satb2 knock-out lysate as negative …; LC-MS
[2] = biological target: T1, SATB2 (mouse (endogenous in cortex)); assay: affinity purification with mass spectrometry; endogenous SATB2 precipitated with anti-SATB2 on protein G Dynabeads from adult (three month-old) mouse cortical lysate (1 mg total protein, overnight 4°C; 25 mM Tris/HCl pH 7.4, 150 mM NaCl, 1% NP-40, 1 mM EDTA, 5% glycerol); Satb2 knock-out lysate as negative control; LC-MS
[3] = biological target: T1, SATB2 (mouse (endogenous in cortex)); assay: affinity purification with mass spectrometry; endogenous SATB2 precipitated with anti-SATB2 on protein G Dynabeads from neonatal mouse cortical lysate (1 mg total protein, overnight 4°C; 25 mM Tris/HCl pH 7.4, 150 mM NaCl, 1% NP-40, 1 mM EDTA, 5% glycerol); Satb2 knock-out lysate as negative …; LC-MS; remark: listed apart in the source

Molecule | binding [1] | binding [2] | binding [3]
LAP2 (mouse (endogenous in cortex)) | binds |  | 
LEMD2 (from UniProt Q6DVA0 1-511) | binds |  | 
BAF (barrier-to-autointegration factor) (from UniProt O54962 1-89) | binds |  | 
LEMD3 (protein, UniProt Q9WU40 1-921) MAAATAAAAPQQLSDEELFSQLRRYGLSPGPVTESTRPVYLKKLKKLREEEQQQQQQQQQQQHRAGGRGNKTRNSNNNNTATAMGGRPGSGDLAYLRSPAGLGRLSASAAESPVAGGSGGAAAVPAAGSKVLLGFSSDESDVEASPREQAGGGGGGGARRDRAALQYRGLRAPPAPPAAGEVTGGHPGERRKPHSWWGARRPAGPEPQPPAAGSDGAAEDADEELADGEDRDPEAEEPLWASRAVNGSRLLPYSSCREHYSDSEEEEEEGEEDGDVAPARQVLKDDSLARHRPRRSHSKPFSALTAKSGGSRQETSVQGGGALAMNDRAAAAGSLDRSRNLEEAAAEPGGGGGGGCGCDPVDSIPRYRAGAKKLAPLLSPPSPDGDSTLESPTGPLLKTNNHIGGGAFGVDSPGLYANSLPPGATAAAAPGTLRINHANHTGSNHTYLKTAYGKPKLCEPEEELLQQFKREEVSPTGSFSAHYLSMFLLTAACLFFLILGLTYLGMRGTGVPEDGGLIKNPFDETFGKIQESEKNLLMSTLYKLHDRLAQIAGDHECGSSSQRMLSVQEAAAYLKNLGPEYEDVFNTSLLWIFKNGKDVGIRCVGYGPEEDLTNITDVQFLQSTRPQMPFWCRFRRAFITVTHRLLLLCLGVVLVCVALRYMRYRWTKEEEETRQMYDMVVKIIDVLRSHNEACQETKDLQPYMPLPHVRDSLIQPQDRKKMKKVWDRAVDFLAANESRVRTETRRVGGADFLVWRWIQPSASCDKTLVIPSKVWQGQAFHLDRRNSPPNSLTPCLKIRNMFDPVMEIGDHWHLAIQEAILEKCSDNDGIVHIAVDRNSREGCVYVKCLSPEYAGKAFKALHGSWFDGKLVTVKYLRLDRYHHRFPQALTCNTPLKPANKHMNSLSHLRLRTGLANSQGSS |  |  | binds
FBL (protein, UniProt P35550 1-327) MKPGFSPRGGGFGGRGGFGDRGGRGGGRGGRGGFGGGRGGFGGGGRGRGGGGGGFRGRGGGGGRGGGFQSGGNRGRGGGRGGKRGNQSGKNVMVEPHRHEGVFICRGKEDALVTKNLVPGESVYGEKRVSISEGDDKIEYRAWNPFRSKLAAAILGGVDQIHIKPGAKVLYLGAASGTTVSHVSDIVGPDGLVYAVEFSHRSGRDLINLAKKRTNIIPVIEDARHPHKYRMLIAMVDVIFADVAQPDQTRIVALNAHTFLRNGGHFVISIKANCIDSTASAEAVFASEVKKMQQENMKPQEQLTLEPYERDHAVVVGVYRPPPKVKN |  |  | binds

Continued, values first:

binding [1] | binding [2] | binding [3] | Molecule
binds | binds |  | histone deacetylase 1 (HDAC1) (from UniProt O09106 1-482)
 |  | binds | DKC1 (protein, UniProt Q9ESX5 1-509) MADAEVITFPKKHKKKKDRKPLQEDDVAEIQHAEEFLIKPESKVAQLDTSQWPLLLKNFDKLNVRTAHYTPLPCGSNPLKREIGDYIRTGFINLDKPSNPSSHEVVAWIRRILRVEKTGHSGTLDPKVTGCLIVCIERATRLVKSQQSAGKEYVGIVRLHNAIEGGTQLSRALETLTGALFQRPPLIAAVKRQLRVRTIYESKMIEYDPERRLGIFWVSCEAGTYIRTLCVHLGLLLGVGGQMQELRRVRSGVMSEKDHMVTMHDVLDAQWLYDNHKDESYLRRVVYPLEKLLTSHKRLVMKDSAVNAICYGAKIMLPGLLRYEDGIEVNQEIVVITTKGEAICMAIALMTTAVISTCDHGIVAKIKRVIMERDTYPRKWGLGPKASQKKMMIKQGLLDKHGKPTDNTPATWKQDYIDYSDSGKNTLVTEAVQAPQLAAEAVNVIKRKRDSESESDETPTVPQLKEKKKKKDKKPKTVLESGGETGDGDNDTTKKKKKKKVKVVEEMSE

No constants are given. Whether binding was seen depends on the method and setting. Binding seen in cells or lysates may run through a third protein. Here binding means that the protein was enriched with, or labelled near, the bait; the list need not be complete.
